In article doi:10.1101/605451:
Like-named read-outs stand apart in the source and are kept apart here. These are yes or no findings as the source states them, for the method shown. Some results given as binding are weak or reduced against the parent protein; the word gives no strength.

Chains of the proteins cited; added tags and fusions are not shown. Lines headed by an entry give the natural chain unless they say otherwise; changes in a name come on top.
UniProt Q15041: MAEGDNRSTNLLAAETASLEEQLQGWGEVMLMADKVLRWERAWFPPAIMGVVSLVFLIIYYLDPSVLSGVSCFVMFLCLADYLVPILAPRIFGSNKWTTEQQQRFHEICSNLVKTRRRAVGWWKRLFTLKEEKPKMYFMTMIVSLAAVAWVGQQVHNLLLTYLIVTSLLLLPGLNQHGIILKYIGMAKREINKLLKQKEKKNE
UniProt Q6ZSS7: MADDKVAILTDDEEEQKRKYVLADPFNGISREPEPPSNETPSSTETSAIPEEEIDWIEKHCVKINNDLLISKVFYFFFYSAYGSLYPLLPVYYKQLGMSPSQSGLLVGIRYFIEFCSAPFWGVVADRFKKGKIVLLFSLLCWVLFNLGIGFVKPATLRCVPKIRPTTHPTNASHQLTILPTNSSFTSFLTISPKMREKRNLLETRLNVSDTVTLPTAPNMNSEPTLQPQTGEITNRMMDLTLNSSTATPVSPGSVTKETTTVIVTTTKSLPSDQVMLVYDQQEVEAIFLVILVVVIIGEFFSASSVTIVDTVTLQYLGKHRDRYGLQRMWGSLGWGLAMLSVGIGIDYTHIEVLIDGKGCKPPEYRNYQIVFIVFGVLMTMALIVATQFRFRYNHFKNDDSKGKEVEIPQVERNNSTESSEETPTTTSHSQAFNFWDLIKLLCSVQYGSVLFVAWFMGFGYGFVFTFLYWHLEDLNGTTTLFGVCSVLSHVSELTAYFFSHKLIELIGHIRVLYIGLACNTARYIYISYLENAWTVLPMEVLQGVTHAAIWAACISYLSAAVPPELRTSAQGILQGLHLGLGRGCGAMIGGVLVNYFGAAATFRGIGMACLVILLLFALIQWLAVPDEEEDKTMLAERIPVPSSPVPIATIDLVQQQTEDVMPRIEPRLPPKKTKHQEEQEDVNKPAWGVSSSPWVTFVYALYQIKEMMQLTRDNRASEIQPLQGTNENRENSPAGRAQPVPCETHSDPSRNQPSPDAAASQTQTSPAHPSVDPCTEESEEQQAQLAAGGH
UniProt P63167: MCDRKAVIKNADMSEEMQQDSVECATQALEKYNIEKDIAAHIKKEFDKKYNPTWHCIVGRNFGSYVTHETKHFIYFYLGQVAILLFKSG
UniProt Q8NEA5: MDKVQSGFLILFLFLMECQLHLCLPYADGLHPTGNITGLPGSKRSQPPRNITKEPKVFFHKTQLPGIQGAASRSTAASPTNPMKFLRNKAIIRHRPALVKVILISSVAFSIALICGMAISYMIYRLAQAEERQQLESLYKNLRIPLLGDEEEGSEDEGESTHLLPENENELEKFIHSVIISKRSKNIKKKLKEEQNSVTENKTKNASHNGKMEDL
UniProt O94972: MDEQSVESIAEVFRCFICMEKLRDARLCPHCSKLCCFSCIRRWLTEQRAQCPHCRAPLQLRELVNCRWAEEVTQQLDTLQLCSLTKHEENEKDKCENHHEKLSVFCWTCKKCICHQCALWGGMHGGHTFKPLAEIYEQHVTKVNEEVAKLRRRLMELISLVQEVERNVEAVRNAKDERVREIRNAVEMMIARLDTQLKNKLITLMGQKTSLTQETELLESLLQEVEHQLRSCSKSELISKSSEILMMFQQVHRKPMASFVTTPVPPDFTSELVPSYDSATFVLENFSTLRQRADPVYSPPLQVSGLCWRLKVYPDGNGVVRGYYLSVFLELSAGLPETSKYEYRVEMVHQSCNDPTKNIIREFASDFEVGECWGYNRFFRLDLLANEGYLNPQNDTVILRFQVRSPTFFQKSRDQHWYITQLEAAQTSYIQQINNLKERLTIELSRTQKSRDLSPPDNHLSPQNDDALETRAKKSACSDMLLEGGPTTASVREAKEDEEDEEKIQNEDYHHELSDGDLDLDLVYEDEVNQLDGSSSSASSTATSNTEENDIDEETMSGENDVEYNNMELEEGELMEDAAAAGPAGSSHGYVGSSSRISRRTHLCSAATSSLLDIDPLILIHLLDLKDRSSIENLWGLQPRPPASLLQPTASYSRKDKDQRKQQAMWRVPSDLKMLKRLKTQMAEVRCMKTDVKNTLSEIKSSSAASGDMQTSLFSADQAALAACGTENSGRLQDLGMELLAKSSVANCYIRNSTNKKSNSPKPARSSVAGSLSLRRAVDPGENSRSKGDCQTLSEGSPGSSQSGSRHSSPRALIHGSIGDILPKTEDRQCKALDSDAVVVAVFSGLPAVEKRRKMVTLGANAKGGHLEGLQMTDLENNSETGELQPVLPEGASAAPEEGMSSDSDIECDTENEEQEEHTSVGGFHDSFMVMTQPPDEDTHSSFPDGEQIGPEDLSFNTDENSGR
UniProt O00560: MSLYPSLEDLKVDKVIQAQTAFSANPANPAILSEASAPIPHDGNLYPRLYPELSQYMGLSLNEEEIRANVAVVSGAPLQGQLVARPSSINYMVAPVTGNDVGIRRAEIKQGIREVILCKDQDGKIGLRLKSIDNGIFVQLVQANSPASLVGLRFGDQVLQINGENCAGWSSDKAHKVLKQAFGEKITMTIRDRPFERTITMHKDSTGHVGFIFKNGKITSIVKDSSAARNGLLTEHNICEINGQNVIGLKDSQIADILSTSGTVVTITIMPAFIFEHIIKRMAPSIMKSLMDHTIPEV

Assays:
Test in all cases: two-hybrid
[1] = target: T1, IER3IP1 (human) (UniProt Q9Y5U9)
T1 sequence: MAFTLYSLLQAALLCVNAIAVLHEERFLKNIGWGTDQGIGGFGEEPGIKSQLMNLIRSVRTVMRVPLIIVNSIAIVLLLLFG

[2] = target: ARL6IP1 (human) (UniProt Q15041)
[3] = target: MFSD6 (human) (UniProt Q6ZSS7)
[4] = target: PNKP, polynucleotide kinase 3'-phosphatase (wild-type allele) (human) (UniProt Q96T60)
[5] = target: PNKP Pro20Ser (human) (UniProt Q96T60)
[6] = target: T2, SUCLA2 (human) (UniProt Q9P2R7)
T2 sequence: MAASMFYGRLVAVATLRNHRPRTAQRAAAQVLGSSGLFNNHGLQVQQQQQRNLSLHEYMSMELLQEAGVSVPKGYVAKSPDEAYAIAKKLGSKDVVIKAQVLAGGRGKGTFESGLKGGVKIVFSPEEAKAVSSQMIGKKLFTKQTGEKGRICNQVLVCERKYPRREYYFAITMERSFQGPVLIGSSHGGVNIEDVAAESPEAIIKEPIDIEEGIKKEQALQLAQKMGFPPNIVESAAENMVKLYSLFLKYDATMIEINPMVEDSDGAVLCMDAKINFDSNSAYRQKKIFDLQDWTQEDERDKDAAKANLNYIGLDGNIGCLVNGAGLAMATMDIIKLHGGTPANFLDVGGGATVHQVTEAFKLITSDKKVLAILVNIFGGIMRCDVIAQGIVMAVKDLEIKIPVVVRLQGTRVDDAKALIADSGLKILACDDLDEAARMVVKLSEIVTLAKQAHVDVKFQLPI

[7] = target: T3, HPRT1 (human) (UniProt P00492)
T3 sequence: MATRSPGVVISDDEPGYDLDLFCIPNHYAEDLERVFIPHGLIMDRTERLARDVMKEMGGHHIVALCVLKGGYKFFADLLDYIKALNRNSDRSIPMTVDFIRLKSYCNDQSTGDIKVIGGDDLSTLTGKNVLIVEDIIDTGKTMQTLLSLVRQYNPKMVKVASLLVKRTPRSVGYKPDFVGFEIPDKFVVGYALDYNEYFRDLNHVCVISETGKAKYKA

[8] = target: T4, CEP55 (human) (UniProt Q53EZ4)
T4 sequence: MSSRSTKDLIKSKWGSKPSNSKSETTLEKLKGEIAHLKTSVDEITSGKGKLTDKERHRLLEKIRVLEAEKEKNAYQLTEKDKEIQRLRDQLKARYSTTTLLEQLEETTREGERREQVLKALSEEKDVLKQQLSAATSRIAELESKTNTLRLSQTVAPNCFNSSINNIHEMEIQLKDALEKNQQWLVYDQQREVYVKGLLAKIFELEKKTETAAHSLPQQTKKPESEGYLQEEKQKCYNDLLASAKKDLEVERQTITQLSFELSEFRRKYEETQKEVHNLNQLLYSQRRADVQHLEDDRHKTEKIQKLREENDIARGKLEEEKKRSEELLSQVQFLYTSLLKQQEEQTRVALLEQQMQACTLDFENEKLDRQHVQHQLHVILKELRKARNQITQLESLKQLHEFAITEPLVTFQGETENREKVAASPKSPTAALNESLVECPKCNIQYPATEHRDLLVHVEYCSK

[9] = target: DYNLL1 (human) (UniProt P63167)
[10] = target: MAPK9 (human) (UniProt P45984)
[11] = target: T5, BCL2L2 (human) (UniProt Q92843)
T5 sequence: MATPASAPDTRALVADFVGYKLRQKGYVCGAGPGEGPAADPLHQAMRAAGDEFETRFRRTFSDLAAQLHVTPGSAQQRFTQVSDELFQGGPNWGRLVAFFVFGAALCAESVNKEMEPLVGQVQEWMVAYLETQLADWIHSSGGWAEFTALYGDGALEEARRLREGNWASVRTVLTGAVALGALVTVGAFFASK

[12] = target: PNKP, polynucleotide kinase 3'-phosphatase (wild-type allele) (human) (UniProt Q96T60); remark: listed apart in the source
[13] = target: PNKP Pro20Ser (human) (UniProt Q96T60); remark: listed apart in the source
[14] = target: T6, CTNNA3 (human) (UniProt Q9UI47)
T6 sequence: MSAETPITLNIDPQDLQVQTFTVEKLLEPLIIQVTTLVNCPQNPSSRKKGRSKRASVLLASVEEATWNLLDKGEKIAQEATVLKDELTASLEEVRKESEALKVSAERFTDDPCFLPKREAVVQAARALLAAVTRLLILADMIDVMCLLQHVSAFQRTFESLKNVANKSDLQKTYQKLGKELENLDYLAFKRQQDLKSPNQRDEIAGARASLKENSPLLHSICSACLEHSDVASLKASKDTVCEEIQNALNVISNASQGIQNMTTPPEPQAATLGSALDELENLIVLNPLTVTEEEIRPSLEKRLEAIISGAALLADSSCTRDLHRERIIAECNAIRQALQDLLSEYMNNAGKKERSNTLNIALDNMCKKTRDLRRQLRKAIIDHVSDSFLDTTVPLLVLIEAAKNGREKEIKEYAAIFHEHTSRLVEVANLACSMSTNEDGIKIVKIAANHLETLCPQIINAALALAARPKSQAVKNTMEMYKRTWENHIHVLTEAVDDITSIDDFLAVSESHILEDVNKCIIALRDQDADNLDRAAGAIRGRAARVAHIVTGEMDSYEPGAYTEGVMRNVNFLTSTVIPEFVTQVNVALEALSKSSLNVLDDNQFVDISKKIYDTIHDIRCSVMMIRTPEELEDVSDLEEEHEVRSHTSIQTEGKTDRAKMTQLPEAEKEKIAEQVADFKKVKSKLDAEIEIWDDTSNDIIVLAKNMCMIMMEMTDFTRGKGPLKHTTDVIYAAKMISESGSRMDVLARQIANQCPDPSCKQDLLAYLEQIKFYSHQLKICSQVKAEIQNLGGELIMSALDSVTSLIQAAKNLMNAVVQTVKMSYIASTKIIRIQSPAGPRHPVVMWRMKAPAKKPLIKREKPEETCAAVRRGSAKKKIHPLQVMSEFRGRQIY

[15] = target: T1, IER3IP1 (human); remark: listed apart in the source
[16] = target: ARL6IP1 (human) (UniProt Q15041); remark: listed apart in the source
[17] = target: MFSD6 (human) (UniProt Q6ZSS7); remark: listed apart in the source

C19ORF18 (from UniProt Q8NEA5 1-215)
binding [1]: binds | binding [2]: binds | binding [3]: binds

TRIM37 (from UniProt O94972 1-964)
binding [4]: binds | binding [5]: binds

ARL6IP1 (from UniProt Q15041 1-203)
binding [6]: binds

SDCBP (syntenin-1) (from UniProt O00560 1-298)
binding [7]: binds | binding [8]: binds

B1: OTUD6A (protein, UniProt Q7L8S5 1-288)
chain: MDDPKSEQQRILRRHQRERQELQAQIRSLKNSVPKTDKTKRKQLLQDVARMEAEMAQKHRQELEKFQDDSSIESVVEDLAKMNLENRPPRSSKAHRKRERMESEERERQESIFQAEMSEHLAGFKREEEEKLAAILGARGLEMKAIPADGHCMYRAIQDQLVFSVSVEMLRCRTASYMKKHVDEFLPFFSNPETSDSFGYDDFMIYCDNIVRTTAWGGQLELRALSHVLKTPIEVIQADSPTLIIGEEYVKKPIILVYLRYAYSLGEHYNSVTPLEAGAAGGVLPRLL
binding [9]: binds

B2: C6ORF222 (protein, UniProt P0C671 1-652)
chain: MENPRCPRRPLAEKKARSLDRPQAPGKGSESWDCHWLSLPTAPSRKALHWTTSDWARHSDSPAPSAEAHCTTAAAPTPEETGDFLPSEQRPSQDTKKGWLKTMLNFFVRTGPEEPREKASRRPRGKEGISQHPEPLEAAGEPALRKKAHHDKKPSRKKQGHKKHAAEVTKAAQDQEARGREEGLSKAAAALRSGEADLGPARRGGEDSDHQSFLIKVDGTGALDVSPHATGHQQEEELKKPDQDAIIQMIVELLKRVGDQWEEEQSLASQLGVALPNPAPAVRKKSQEKKTSLKRTSKTNPKKHGSEEAKRGAADVSSPEAWPPKKSSFLPLCVSGHRPSISSSYGLEEPKVQEAPSTEAGAPGPSVLPTPSESQEPGEELPLDRASEYKEFIQKIISMLQDAEEQQGEEQPQVQQEEVGVENPAPHCRRKSQEKRSSFRRAFYHKKHTSKEPRRAGAAGAASPEARRPKRPSFLPLCVGGHRPSTSSSLDPEDLECREPLPAEGEPVVISEAPSQARGHTPEGAPQLSGACESKEIIIQKLVALLQEVDGQLGQQIRRHPSFKRFFYEFSDSSLSKLVATLRSQVAHSSKLDRNRARRLYQFDVSLANKFAGSNSHAMCILMGLRDHYNCTQFPYREDQPNITSPKVESPD
binding [10]: binds | binding [11]: binds

B3: SYNGR1 (protein, UniProt O43759 1-233)
chain: MEGGAYGAGKAGGAFDPYTLVRQPHTILRVVSWLFSIVVFGSIVNEGYLNSASEGEEFCIYNRNPNACSYGVAVGVLAFLTCLLYLALDVYFPQISSVKDRKKAVLSDIGVSAFWAFLWFVGFCYLANQWQVSKPKDNPLNEGTDAARAAIAFSFFSIFTWAGQAVLAFQRYQIGADSALFSQDYMDPSQDSSMPYAPYVEPTGPDPAGMGGTYQQPANTFDTEPQGYQSQGY
binding [12]: binds | binding [13]: binds

B4: TRIM54 (protein, UniProt Q9BYV2 1-358)
chain: MNFTVGFKPLLGDAHSMDNLEKQLICPICLEMFSKPVVILPCQHNLCRKCANDVFQASNPLWQSRGSTTVSSGGRFRCPSCRHEVVLDRHGVYGLQRNLLVENIIDIYKQESSRPLHSKAEQHLMCEEHEEEKINIYCLSCEVPTCSLCKVFGAHKDCEVAPLPTIYKRQKSELSDGIAMLVAGNDRVQAVITQMEEVCQTIEDNSRRQKQLLNQRFESLCAVLEERKGELLQALAREQEEKLQRVRGLIRQYGDHLEASSKLVESAIQSMEEPQMALYLQQAKELINKVGAMSKVELAGRPEPGYESMEQFTVRVEHVAEMLRTIDFQPGASGEEEEVAPDGEEGSAGPEEERPDGP
binding [14]: binds

B5: TMEM258 (protein, UniProt P61165 1-79)
chain: MELEAMSRYTSPVNPAVFPHLTVVLLAIGMFFTAWFFVYEVTSTKYTRDIYKELLISLVASLFMGFGVLFLLLWVGIYV
binding [15]: binds | binding [16]: binds | binding [17]: binds
